The supplement of paper PMC8728848
The list shows a part of the results.

Columns and labels:
Test in all cases: glycan array binding signal (z-score within array); higher = stronger binding
Conditions in all cases: glycan notation: IUPAC condensed, linker removed
[1] = molecular target: Neu5Ac(a2-3)Gal(b1-4)GlcNAc(b1-6)GalNAc
How it was run: (§1)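 Negative Z-scores can be read as non-binding. The Z-score is calculated within each array and then averaged across arrays of one protein sequence at different concentrations or buffers and across linkers. Arrays, 3228 in all, were curated from the Consortium for Functional Glycomics database and kept only where the protein sequence was available.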

[2] = molecular target: Neu5Ac(a2-3)Gal(b1-4)GlcNAc(b1-6)[Gal(b1-3)]GalNAc
How it was run: as §1

[3] = molecular target: Neu5Ac(a2-3)Gal(b1-4)GlcNAc(b1-6)[Neu5Ac(a2-3)Gal(b1-3)]GalNAc
How it was run: as §1

[4] = molecular target: Neu5Ac(a2-3)Gal(b1-4)GlcNAc6S
How it was run: as §1

[5] = molecular target: Neu5Ac(a2-3)Gal(b1-4)[Fuc(a1-3)]GlcNAc
How it was run: as §1

[6] = molecular target: Neu5Ac(a2-3)Gal(b1-4)[Fuc(a1-3)]GlcNAc(b1-2)Man
How it was run: as §1

[7] = molecular target: Neu5Ac(a2-3)Gal(b1-4)[Fuc(a1-3)]GlcNAc(b1-3)Gal
How it was run: as §1

[8] = molecular target: Neu5Ac(a2-3)Gal(b1-4)[Fuc(a1-3)]GlcNAc(b1-3)Gal(b1-4)GlcNAc
How it was run: as §1

[9] = molecular target: Neu5Ac(a2-3)Gal(b1-4)[Fuc(a1-3)]GlcNAc(b1-3)Gal(b1-4)[Fuc(a1-3)]GlcNAc(b1-3)Gal(b1-4)[Fuc(a1-3)]GlcNAc
How it was run: as §1

[10] = molecular target: Neu5Ac(a2-3)Gal(b1-4)[Fuc(a1-3)]GlcNAc(b1-3)GalNAc
How it was run: as §1

[11] = molecular target: Neu5Ac(a2-3)Gal(b1-4)[Fuc(a1-3)]GlcNAc(b1-6)[Gal(b1-3)]GalNAc
How it was run: as §1

[12] = molecular target: Neu5Ac(a2-3)Gal(b1-4)[Fuc(a1-3)]GlcNAc(b1-6)[Neu5Ac(a2-3)Gal(b1-3)]GalNAc
How it was run: as §1

[13] = molecular target: Neu5Ac(a2-3)Gal(b1-4)[Fuc(a1-3)]GlcNAc6S
How it was run: as §1

[14] = molecular target: Neu5Ac(a2-3)Gal6S(b1-4)GlcNAc
How it was run: as §1

[15] = molecular target: Neu5Ac(a2-3)Gal6S(b1-4)[Fuc(a1-3)]GlcNAc
How it was run: as §1

[16] = molecular target: Neu5Ac(a2-3)GalNAc
How it was run: as §1

[17] = molecular target: Neu5Ac(a2-3)GalNAc(b1-4)GlcNAc
How it was run: as §1

[18] = molecular target: Neu5Ac(a2-3)[GalNAc(b1-4)]Gal(b1-4)Glc
How it was run: as §1

[19] = molecular target: Neu5Ac(a2-3)[GalNAc(b1-4)]Gal(b1-4)GlcNAc
How it was run: as §1

[20] = molecular target: Neu5Ac(a2-3)[GalNAc(b1-4)]Gal(b1-4)GlcNAc(b1-3)GalNAc
How it was run: as §1

[21] = molecular target: Neu5Ac(a2-3)[Neu5Ac(a2-6)]GalNAc
How it was run: as §1

[22] = molecular target: Neu5Ac(a2-6)Gal
How it was run: as §1

[23] = molecular target: Neu5Ac(a2-6)Gal(b1-3)GlcNAc(b1-3)[Gal(b1-4)GlcNAc(b1-6)]Gal(b1-4)Glc
How it was run: as §1

[24] = molecular target: Neu5Ac(a2-6)Gal(b1-4)Glc
How it was run: as §1

[25] = molecular target: Neu5Ac(a2-6)Gal(b1-4)GlcNAc
How it was run: as §1

[26] = molecular target: Neu5Ac(a2-6)Gal(b1-4)GlcNAc(b1-2)Man
How it was run: as §1

[27] = molecular target: Neu5Ac(a2-6)Gal(b1-4)GlcNAc(b1-2)Man(a1-3)Man(b1-4)GlcNAc(b1-4)GlcNAc
How it was run: as §1

[28] = molecular target: Neu5Ac(a2-6)Gal(b1-4)GlcNAc(b1-2)Man(a1-3)[Gal(b1-4)GlcNAc(b1-2)Man(a1-6)]Man(b1-4)GlcNAc(b1-4)GlcNAc
How it was run: as §1

[29] = molecular target: Neu5Ac(a2-6)Gal(b1-4)GlcNAc(b1-2)Man(a1-3)[GlcNAc(b1-2)Man(a1-6)]Man(b1-4)GlcNAc(b1-4)GlcNAc
How it was run: as §1

[30] = molecular target: Neu5Ac(a2-6)Gal(b1-4)GlcNAc(b1-2)Man(a1-3)[GlcNAc(b1-4)][Neu5Ac(a2-6)Gal(b1-4)GlcNAc(b1-2)Man(a1-6)]Man(b1-4)GlcNAc(b1-4)GlcNAc
How it was run: as §1

[31] = molecular target: Neu5Ac(a2-6)Gal(b1-4)GlcNAc(b1-2)Man(a1-3)[Man(a1-6)]Man(b1-4)GlcNAc(b1-4)GlcNAc
How it was run: as §1

[32] = molecular target: Neu5Ac(a2-6)Gal(b1-4)GlcNAc(b1-2)Man(a1-3)[Neu5Ac(a2-3)Gal(b1-4)GlcNAc(b1-2)Man(a1-6)]Man(b1-4)GlcNAc(b1-4)GlcNAc
How it was run: as §1

[33] = molecular target: Neu5Ac(a2-6)Gal(b1-4)GlcNAc(b1-2)Man(a1-3)[Neu5Ac(a2-6)Gal(b1-4)GlcNAc(b1-2)Man(a1-6)]Man(b1-4)GlcNAc(b1-4)GlcNAc
How it was run: as §1

[34] = molecular target: Neu5Ac(a2-6)Gal(b1-4)GlcNAc(b1-2)Man(a1-3)[Neu5Ac(a2-6)Gal(b1-4)GlcNAc(b1-2)Man(a1-6)]Man(b1-4)GlcNAc(b1-4)[Fuc(a1-6)]GlcNAc
How it was run: as §1

[35] = molecular target: Neu5Ac(a2-6)Gal(b1-4)GlcNAc(b1-2)Man(a1-6)Man(b1-4)GlcNAc(b1-4)GlcNAc
How it was run: as §1

[36] = molecular target: Neu5Ac(a2-6)Gal(b1-4)GlcNAc(b1-2)Man(a1-6)[Gal(b1-4)GlcNAc(b1-2)Man(a1-3)]Man(b1-4)GlcNAc(b1-4)GlcNAc
How it was run: as §1

[37] = molecular target: Neu5Ac(a2-6)Gal(b1-4)GlcNAc(b1-2)Man(a1-6)[GlcNAc(b1-2)Man(a1-3)]Man(b1-4)GlcNAc(b1-4)GlcNAc
How it was run: as §1

[38] = molecular target: Neu5Ac(a2-6)Gal(b1-4)GlcNAc(b1-2)Man(a1-6)[Man(a1-3)]Man(b1-4)GlcNAc(b1-4)GlcNAc
How it was run: as §1

[39] = molecular target: Neu5Ac(a2-6)Gal(b1-4)GlcNAc(b1-2)[Neu5Ac(a2-6)Gal(b1-4)GlcNAc(b1-4)]Man(a1-3)[GlcNAc(b1-4)][Neu5Ac(a2-6)Gal(b1-4)GlcNAc(b1-2)[Neu5Ac(a2-6)Gal(b1-4)GlcNAc(b1-6)]Man(a1-6)]Man(b1-4)GlcNAc(b1-4)GlcNAc
How it was run: as §1

[40] = molecular target: Neu5Ac(a2-6)Gal(b1-4)GlcNAc(b1-2)[Neu5Ac(a2-6)Gal(b1-4)GlcNAc(b1-4)]Man(a1-3)[GlcNAc(b1-4)][Neu5Ac(a2-6)Gal(b1-4)GlcNAc(b1-4)Man(a1-6)]Man(b1-4)GlcNAc(b1-4)GlcNAc
How it was run: as §1

[41] = molecular target: Neu5Ac(a2-6)Gal(b1-4)GlcNAc(b1-2)[Neu5Ac(a2-6)Gal(b1-4)GlcNAc(b1-6)]Man(a1-6)[Neu5Ac(a2-6)Gal(b1-4)GlcNAc(b1-2)Man(a1-3)][GlcNAc(b1-4)]Man(b1-4)GlcNAc(b1-4)GlcNAc
How it was run: as §1

[42] = molecular target: Neu5Ac(a2-6)Gal(b1-4)GlcNAc(b1-3)Gal(b1-3)GlcNAc
How it was run: as §1

[43] = molecular target: Neu5Ac(a2-6)Gal(b1-4)GlcNAc(b1-3)Gal(b1-4)GlcNAc
How it was run: as §1

[44] = molecular target: Neu5Ac(a2-6)Gal(b1-4)GlcNAc(b1-3)Gal(b1-4)GlcNAc(b1-2)Man(a1-3)[Neu5Ac(a2-6)Gal(b1-4)GlcNAc(b1-3)Gal(b1-4)GlcNAc(b1-2)Man(a1-6)]GalNAc
How it was run: as §1

[45] = molecular target: Neu5Ac(a2-6)Gal(b1-4)GlcNAc(b1-3)Gal(b1-4)GlcNAc(b1-3)Gal(b1-4)GlcNAc
How it was run: as §1

B1: B936 (Bifidobacterium sp) (protein)
chain: MKNWKKAIALVASAAALVSVAACGPSNAGGSSDSGKKTVGFVAVGPEGGFRTANEKDIQKAFEDAGFDLTYSPTQNNDQQKQIQAFNKFVNDEVDAIILSSTEDSGWDDSLKKAAEAEIPVFTVDRNVDVKDAEAKKAIVAHIGPSNVWCGEQAAEFVNKNFPDGANGFILEGPAGLSVVKDRGTGWGNKVASNVKVLESQSANWSTDEAKTVTAGLLDKYKSDNPQFIFAQNDEMGLGAAQAVDAAGLKGKVKIITIDGTKNALQALVDGDLSYVIEYNPIFGKETAQAVKDYLDGKTVEKDIEIESKTFDAASAKEALDNNTRAY
Which “glycan array binding signal (z-score)” value [1] does the source give for B1 here?
Its value is 0.205.

What about the “glycan array binding signal (z-score)” value [2] of the same binder?
Its value is -0.468.

And the “glycan array binding signal (z-score)” value [3]?
Its value is -0.773.

What about the “glycan array binding signal (z-score)” value [4] of the same binder?
The value was -0.108.

What about the “glycan array binding signal (z-score)” value [5] of the same binder?
The value was -0.682.

What about the “glycan array binding signal (z-score)” value [6] of the same binder?
Its value is -0.775.

And the “glycan array binding signal (z-score)” value [7]?
The value was -0.642.

And the “glycan array binding signal (z-score)” value [8]?
Its value is 0.579.

And the “glycan array binding signal (z-score)” value [9]?
Its value is 1.11.

What about the “glycan array binding signal (z-score)” value [10] of the same binder?
Its value is 0.865.

What about the “glycan array binding signal (z-score)” value [11] of the same binder?
The value was 0.094.

What about the “glycan array binding signal (z-score)” value [12] of the same binder?
Its value is 1.08.

And the “glycan array binding signal (z-score)” value [13]?
The value was 0.03.

What about the “glycan array binding signal (z-score)” value [14] of the same binder?
The value was -0.525.

And the “glycan array binding signal (z-score)” value [15]?
The value was -0.317.

And the “glycan array binding signal (z-score)” value [16]?
Its value is -0.289.

What about the “glycan array binding signal (z-score)” value [17] of the same binder?
Its value is -0.107.

And the “glycan array binding signal (z-score)” value [18]?
Its value is -0.48.

And the “glycan array binding signal (z-score)” value [19]?
The value was 0.221.

And the “glycan array binding signal (z-score)” value [20]?
The value was -0.056.

What about the “glycan array binding signal (z-score)” value [21] of the same binder?
The value was -0.232.

And the “glycan array binding signal (z-score)” value [22]?
The value was 0.359.

And the “glycan array binding signal (z-score)” value [23]?
The value was -0.232.

And the “glycan array binding signal (z-score)” value [24]?
Its value is -0.726.

And the “glycan array binding signal (z-score)” value [25]?
The value was -0.479.

And the “glycan array binding signal (z-score)” value [26]?
The value was -0.408.

And the “glycan array binding signal (z-score)” value [27]?
Its value is -0.09.

What about the “glycan array binding signal (z-score)” value [28] of the same binder?
The value was -0.265.

And the “glycan array binding signal (z-score)” value [29]?
The value was -0.546.

And the “glycan array binding signal (z-score)” value [30]?
The value was -0.397.

What about the “glycan array binding signal (z-score)” value [31] of the same binder?
The value was -0.024.

And the “glycan array binding signal (z-score)” value [32]?
Its value is -0.482.

What about the “glycan array binding signal (z-score)” value [33] of the same binder?
Its value is -0.289.

And the “glycan array binding signal (z-score)” value [34]?
Its value is 0.231.

And the “glycan array binding signal (z-score)” value [35]?
The value was 0.197.

And the “glycan array binding signal (z-score)” value [36]?
Its value is -0.37.

What about the “glycan array binding signal (z-score)” value [37] of the same binder?
The value was -0.837.

What about the “glycan array binding signal (z-score)” value [38] of the same binder?
Its value is -0.38.

What about the “glycan array binding signal (z-score)” value [39] of the same binder?
Its value is -0.539.

What about the “glycan array binding signal (z-score)” value [40] of the same binder?
Its value is 1.12.

What about the “glycan array binding signal (z-score)” value [41] of the same binder?
Its value is -0.739.

And the “glycan array binding signal (z-score)” value [42]?
Its value is -0.036.

What about the “glycan array binding signal (z-score)” value [43] of the same binder?
Its value is -0.116.

And the “glycan array binding signal (z-score)” value [44]?
The value was 0.592.

And the “glycan array binding signal (z-score)” value [45]?
The value was -0.561.
